According to paper PMC9166766:
No constants are given. Whether binding was seen depends on the method and setting. In cells and extracts the contact can be indirect. Some results given as binding are weak or reduced against the parent protein; the word gives no strength.

The chains behind the UniProt entries cited, without tags or fusion partners.
UniProt Q9Y6J0: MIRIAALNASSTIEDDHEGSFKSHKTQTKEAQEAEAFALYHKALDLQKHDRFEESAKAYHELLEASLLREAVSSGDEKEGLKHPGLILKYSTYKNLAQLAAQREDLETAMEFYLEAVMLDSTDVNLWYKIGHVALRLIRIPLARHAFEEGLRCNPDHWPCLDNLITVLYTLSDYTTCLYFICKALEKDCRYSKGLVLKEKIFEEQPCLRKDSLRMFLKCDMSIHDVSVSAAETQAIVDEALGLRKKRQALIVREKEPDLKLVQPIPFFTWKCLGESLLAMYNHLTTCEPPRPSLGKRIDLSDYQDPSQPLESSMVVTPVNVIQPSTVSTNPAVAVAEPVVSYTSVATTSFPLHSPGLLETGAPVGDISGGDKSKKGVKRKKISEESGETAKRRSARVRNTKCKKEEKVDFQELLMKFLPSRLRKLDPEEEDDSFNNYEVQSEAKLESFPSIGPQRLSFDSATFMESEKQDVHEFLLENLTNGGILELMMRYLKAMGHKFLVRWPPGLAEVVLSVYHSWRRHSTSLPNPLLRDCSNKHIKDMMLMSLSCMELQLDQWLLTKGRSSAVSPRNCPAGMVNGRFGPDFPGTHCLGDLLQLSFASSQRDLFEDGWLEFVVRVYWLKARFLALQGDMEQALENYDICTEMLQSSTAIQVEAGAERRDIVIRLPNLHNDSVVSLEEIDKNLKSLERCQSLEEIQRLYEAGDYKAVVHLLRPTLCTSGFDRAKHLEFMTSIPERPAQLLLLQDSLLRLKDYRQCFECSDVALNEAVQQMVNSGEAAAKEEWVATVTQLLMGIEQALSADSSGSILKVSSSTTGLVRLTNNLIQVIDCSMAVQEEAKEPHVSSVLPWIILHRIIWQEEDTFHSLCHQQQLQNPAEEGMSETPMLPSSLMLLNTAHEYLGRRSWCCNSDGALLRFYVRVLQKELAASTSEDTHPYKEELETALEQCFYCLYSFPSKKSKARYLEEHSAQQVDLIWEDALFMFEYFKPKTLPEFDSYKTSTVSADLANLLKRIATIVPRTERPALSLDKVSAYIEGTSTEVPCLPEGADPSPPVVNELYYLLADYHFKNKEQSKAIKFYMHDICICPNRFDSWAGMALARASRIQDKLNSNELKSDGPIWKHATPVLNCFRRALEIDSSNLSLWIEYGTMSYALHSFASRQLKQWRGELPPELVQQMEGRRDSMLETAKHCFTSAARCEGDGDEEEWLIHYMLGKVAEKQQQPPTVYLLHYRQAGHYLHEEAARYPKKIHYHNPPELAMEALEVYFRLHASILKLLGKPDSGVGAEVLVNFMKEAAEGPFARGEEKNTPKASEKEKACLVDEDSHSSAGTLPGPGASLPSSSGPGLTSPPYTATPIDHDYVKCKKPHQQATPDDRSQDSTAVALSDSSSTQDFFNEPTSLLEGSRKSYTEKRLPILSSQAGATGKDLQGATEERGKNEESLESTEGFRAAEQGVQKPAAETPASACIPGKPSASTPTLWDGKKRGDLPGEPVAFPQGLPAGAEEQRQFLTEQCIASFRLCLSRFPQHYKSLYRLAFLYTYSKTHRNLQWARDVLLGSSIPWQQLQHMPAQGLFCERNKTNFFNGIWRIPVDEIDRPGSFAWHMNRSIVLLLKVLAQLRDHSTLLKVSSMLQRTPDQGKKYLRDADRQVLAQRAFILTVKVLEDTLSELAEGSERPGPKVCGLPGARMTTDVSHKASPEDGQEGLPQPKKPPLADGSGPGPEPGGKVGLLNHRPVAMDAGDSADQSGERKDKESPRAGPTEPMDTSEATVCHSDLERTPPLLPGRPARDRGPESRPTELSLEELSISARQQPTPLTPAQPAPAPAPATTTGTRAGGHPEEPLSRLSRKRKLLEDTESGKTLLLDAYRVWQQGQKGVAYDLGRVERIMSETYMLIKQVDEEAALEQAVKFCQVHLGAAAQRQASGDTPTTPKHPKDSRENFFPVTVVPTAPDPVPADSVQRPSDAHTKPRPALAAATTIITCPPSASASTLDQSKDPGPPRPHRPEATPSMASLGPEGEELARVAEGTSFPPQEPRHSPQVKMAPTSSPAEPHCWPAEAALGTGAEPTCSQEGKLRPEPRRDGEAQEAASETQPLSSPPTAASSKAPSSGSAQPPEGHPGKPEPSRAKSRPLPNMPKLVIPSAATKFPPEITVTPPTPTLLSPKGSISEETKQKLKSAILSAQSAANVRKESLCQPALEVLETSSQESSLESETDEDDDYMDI
UniProt Q16539: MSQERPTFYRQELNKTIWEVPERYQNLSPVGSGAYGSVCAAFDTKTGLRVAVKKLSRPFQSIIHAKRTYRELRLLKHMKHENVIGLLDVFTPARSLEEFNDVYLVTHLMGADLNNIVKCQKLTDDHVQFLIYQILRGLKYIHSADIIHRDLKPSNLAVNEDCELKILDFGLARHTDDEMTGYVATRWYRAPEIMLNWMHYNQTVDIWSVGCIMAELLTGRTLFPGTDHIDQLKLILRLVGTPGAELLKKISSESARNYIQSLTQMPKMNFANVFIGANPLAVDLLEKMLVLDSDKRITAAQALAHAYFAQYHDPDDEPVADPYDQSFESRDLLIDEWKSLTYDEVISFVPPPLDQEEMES

Target: HA-CABIN1 (UniProt Q9Y6J0)
Assay: co-IP; transfected HEK293T cells lysed in IP150 buffer; Flag- and HA-tagged proteins precipitated with Anti-FLAG M2 Affinity Gel or Anti-HA Agarose; western blot

binding: binds
Substance: Flag-p38α (from UniProt Q16539 1-360)
